No constants are given. Whether binding was seen depends on the method and setting.
Legend:
Assay in all cases: two-hybrid; matrix-based GAL4 yeast two-hybrid by mating (baits in PJ69-4alpha, preys in PJ69-4a); selection on SD-Leu-Trp-Ade or SD-Leu-Trp-His with 5 and 10 mM 3-amino-1,2,4-triazole; scored after 5 days at 30 °C; BD baits of TCP1, 2, 4, 10, 12, 18, 20 and 24 excluded for auto-activation; positive only if reproducible with at least two selection markers
[1] = molecular target: TCP22 (Arabidopsis thaliana) (UniProt Q9C7G4)
[2] = molecular target: TCP21 (Arabidopsis thaliana) (UniProt Q9FTA2)
[3] = molecular target: TCP15 (Arabidopsis thaliana) (UniProt Q9C9L2)
[4] = molecular target: T1, TCP13 (Arabidopsis thaliana) (UniProt Q9S7W5)
T1 sequence: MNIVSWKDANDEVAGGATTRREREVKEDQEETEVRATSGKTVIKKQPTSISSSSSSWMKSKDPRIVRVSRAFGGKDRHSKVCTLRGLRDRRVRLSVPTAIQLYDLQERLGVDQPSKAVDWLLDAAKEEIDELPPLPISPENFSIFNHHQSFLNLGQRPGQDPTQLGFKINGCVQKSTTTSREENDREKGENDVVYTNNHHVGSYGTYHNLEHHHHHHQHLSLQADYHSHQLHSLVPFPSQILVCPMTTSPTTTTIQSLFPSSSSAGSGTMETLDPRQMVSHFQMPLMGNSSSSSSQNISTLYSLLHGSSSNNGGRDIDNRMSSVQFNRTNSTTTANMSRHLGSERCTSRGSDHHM

The chains behind the UniProt entries cited, without tags or fusion partners.
UniProt Q9C7G4: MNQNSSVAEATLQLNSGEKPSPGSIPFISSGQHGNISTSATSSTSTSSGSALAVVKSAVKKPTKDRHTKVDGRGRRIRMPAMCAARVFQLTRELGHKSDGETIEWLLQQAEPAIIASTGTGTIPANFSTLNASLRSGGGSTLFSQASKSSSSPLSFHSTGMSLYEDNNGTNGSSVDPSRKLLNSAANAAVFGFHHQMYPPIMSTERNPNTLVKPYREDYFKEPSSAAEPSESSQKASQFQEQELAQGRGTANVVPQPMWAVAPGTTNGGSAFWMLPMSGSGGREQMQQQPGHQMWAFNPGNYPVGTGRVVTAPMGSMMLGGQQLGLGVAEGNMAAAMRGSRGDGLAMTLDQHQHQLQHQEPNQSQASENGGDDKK
UniProt Q9FTA2: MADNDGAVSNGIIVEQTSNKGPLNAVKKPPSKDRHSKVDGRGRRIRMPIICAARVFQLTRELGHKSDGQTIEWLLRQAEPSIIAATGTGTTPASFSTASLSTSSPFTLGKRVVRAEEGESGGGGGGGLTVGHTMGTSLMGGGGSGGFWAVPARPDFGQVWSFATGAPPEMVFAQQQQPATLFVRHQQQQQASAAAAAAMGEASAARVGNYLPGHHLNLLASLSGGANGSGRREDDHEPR
UniProt Q9C518: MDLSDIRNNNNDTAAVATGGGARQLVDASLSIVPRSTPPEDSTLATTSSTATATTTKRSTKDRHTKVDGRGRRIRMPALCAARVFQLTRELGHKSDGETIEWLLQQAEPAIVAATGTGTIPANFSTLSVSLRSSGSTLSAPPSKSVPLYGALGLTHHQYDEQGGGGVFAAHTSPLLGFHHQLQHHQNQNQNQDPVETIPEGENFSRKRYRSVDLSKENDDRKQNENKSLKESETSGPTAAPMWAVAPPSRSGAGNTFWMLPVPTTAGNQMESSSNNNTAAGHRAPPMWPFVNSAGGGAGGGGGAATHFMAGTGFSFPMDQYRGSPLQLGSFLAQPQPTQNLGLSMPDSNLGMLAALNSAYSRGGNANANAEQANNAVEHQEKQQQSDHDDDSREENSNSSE
UniProt O64647: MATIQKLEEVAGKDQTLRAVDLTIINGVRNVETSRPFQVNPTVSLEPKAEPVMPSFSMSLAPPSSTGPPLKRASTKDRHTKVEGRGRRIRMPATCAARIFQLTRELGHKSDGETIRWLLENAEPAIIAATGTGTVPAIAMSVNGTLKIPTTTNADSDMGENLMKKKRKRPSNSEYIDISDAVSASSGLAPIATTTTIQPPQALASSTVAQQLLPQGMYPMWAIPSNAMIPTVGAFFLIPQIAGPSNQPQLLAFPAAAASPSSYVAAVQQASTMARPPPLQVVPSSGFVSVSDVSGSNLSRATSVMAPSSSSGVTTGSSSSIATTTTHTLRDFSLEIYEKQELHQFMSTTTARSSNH

[5] = molecular target: TCP8 (Arabidopsis thaliana) (UniProt Q9C518)
[6] = molecular target: T2, TCP16 (Arabidopsis thaliana) (UniProt Q9M1U4)
T2 sequence: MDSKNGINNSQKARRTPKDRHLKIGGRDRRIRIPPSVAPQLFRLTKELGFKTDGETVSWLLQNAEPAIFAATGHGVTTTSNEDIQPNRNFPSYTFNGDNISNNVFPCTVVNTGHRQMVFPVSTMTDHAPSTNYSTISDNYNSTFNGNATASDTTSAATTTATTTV

[7] = molecular target: T3, TCP19 (Arabidopsis thaliana) (UniProt Q9LT89)
T3 sequence: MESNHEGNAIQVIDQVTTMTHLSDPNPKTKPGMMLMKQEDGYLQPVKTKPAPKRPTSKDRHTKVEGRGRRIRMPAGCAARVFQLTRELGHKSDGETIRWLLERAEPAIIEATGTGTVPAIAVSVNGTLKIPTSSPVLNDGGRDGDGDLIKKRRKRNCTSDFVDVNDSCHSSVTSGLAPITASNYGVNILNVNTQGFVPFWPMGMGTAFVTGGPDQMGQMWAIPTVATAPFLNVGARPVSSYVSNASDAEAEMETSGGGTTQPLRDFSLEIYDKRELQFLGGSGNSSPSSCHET

Measured: binding

TCP9 (from UniProt O64647 1-356)
no binding: all assays above

Reference: publication PMC3871820
